Test results from the supplement of paper PMC4604168 (melanoma cell lines).
The other results are listed elsewhere or left out. Many values rest on one well or one pass, so single values are uncertain.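 Cells were imaged in 1,536-well plates, and nuclei stained with an antibody against cleaved PARP were counted against all DNA-stained nuclei to give the apoptosis fraction. Screening doses were chosen to leave most cells alive, and resting and induced cleaved-PARP levels differ strongly between cell lines.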

These molecules were tested on SkMel2 (assay: cleaved PARP positive nuclei fraction relative to DMSO control; melanoma cells; higher = more apoptosis). Settings: library dose: low library concentration; 72 h.

Row | Compound | cleaved PARP positive nuclei fraction
1 | Nc1ccn([C@@H]2O[C@H](CO)[C@@H](O)C2(F)F)c(=O)n1 [gemcitabine] + O=C(Nc1cccc(Cl)c1)Nc1ncc(CCNc2ncnc3ccsc23)s1 [SNS314] (first compound 0.0004 µM, partner dose 0.0008 µM) | 90.3%
2 | C[C@@H](Oc1cc(-c2cnn(C3CCNCC3)c2)cnc1N)c1c(Cl)ccc(F)c1Cl [Crizotinib] + CO[C@@H]1[C@H](N(C)C(=O)c2ccccc2)C[C@H]2O[C@]1(C)n1c3ccccc3c3c4c(c5c6ccccc6n2c5c31)C(=O)NC4 [Midostaurin] (first compound 0.2 µM, partner dose 0.08 µM) | 132%
3 | CC(C)C[C@H](NC(=O)[C@H](Cc1ccccc1)NC(=O)c1cnccn1)B(O)O [Bortezomib] + COc1ccc2c(c1)CCC1C2CCC2(C)C(NCCCCCCN3C(=O)C=CC3=O)CCC12 [U73122] (first compound 0.001 µM, partner dose 0.4 µM) | 141%
4 | Nc1ccn([C@@H]2O[C@H](CO)[C@@H](O)C2(F)F)c(=O)n1 [gemcitabine] + OCCn1cc(-c2cnc3nnn(Cc4ccc5ncccc5c4)c3n2)cn1 [PF04217903] (first compound 0.0004 µM, partner dose 1 µM) | 154%
5 | CNC(=O)c1cc(Oc2ccc(NC(=O)Nc3ccc(Cl)c(C(F)(F)F)c3)cc2)ccn1 [sorafenib] + CO[C@@H]1[C@H](N(C)C(=O)c2ccccc2)C[C@H]2O[C@]1(C)n1c3ccccc3c3c4c(c5c6ccccc6n2c5c31)C(=O)NC4 [Midostaurin] (first compound 0.4 µM, partner dose 0.08 µM) | 55.9%
